The values are deposited in ChEMBL (CHEMBL3988442, “University of Dundee, Small-Polar-MMV Screening Library” (2021)).

Mtb glucose medium: 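Whole-cell growth test on Mycobacterium tuberculosis, read after 3 days in glucose-containing 7H9 medium; the read-out is not stated. Concentration: 50 µM. The record gives no direction; compounds that gave an IC50 in retests scored well above the rest, so higher reads as more growth inhibition. About 69,000 compounds were tested under these conditions; 1.1% (about 760) showed 50% or more at least once.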
Mtb cholesterol medium: 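Whole-cell growth test on Mycobacterium tuberculosis, read after 4 days in a medium based on cholesterol and the lipid DPPC; the read-out is not stated. Tested at 50 µM. Higher reads as more growth inhibition (inferred: compounds with an IC50 in retests scored well above the rest). Size under these conditions: about 69,000 compounds, about 370 of them at 50% or above in at least one test.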

Each number is a percent effect as filed.
The record does not define 0% and 100%; most values in the screen are far below 50% and negative numbers occur (in some assays of this library far below -100).
The compounds are a random part of those screened.
Two or more numbers in one place are separate tests of the same structure; such repeats can differ widely.

SMILES,Mtb glucose medium,Mtb cholesterol medium
CC(=O)N1CCCN(C(C)c2ccc(Br)cc2)CC1 (stereo not given),-41.25 & -9.13,-39.58
CN(CC(=O)N1CCCCC1c1nc(C(C)(C)C)cs1)C1CC1 (stereo not given),-10.36,-15.19
COC(=O)c1cc(CN2CCN(c3nc(C)cnc3C)CC2)ccc1O,10.24,6.446
O=S(=O)(Cc1c(F)cccc1F)NCCOc1cccnc1,19.18,-8.575
COCCC(=O)N1CCC(c2cc3ncc(C)nc3[nH]2)CC1,-4.93,-7.79
CCc1cc(O)nc(C2CCCN2C(=O)COC)n1 (stereo not given),6.215,8.606
Cn1cc(CN2CCOC(c3cccc(-c4cccc(F)c4)n3)C2)cn1 (stereo not given),16.42,-1.266
CC(C1CC1)N(C)C(=O)CCn1cccn1 (stereo not given),-3.627,-32.82
CCn1cc(NC(=O)NCC(O)CN2CCc3ccccc3C2)cn1 (stereo not given),-12.46,-1.904
[H][C@@]12COC[C@]1(CNS(C)(=O)=O)CN(C(=O)c1ccccc1)C2,11.48,4.051
Cc1cccc2c1NC1(CCOCC1)NC2=O,-4.997,-13.17
O=C(O)C(F)(F)F.O=C(O)C(F)(F)F.O=C(O)C(F)(F)F.[H][C@@]12COC[C@]1(CN(C)C)CN(Cc1ccccn1)C2,0.4444,-13.19
Cc1cc(C(N)=O)ccc1NC(=O)c1nc(N2CCCC2)ncc1Cl,-23.13,-20.67 & 0.4273
COCCc1noc(CN(C)C(=O)C2COc3ccccc3C2)n1 (stereo not given),-9.214,-4.731 & -4.762
Cc1ccc(CC(=O)N2CCn3cc(Cn4cncn4)nc3C2)cc1,3.87 & 13.87,3.843
O=C(O)C(F)(F)F.O=C(O)C(F)(F)F.[H][C@@]12CCCO[C@]1([H])[C@H](OC)CN2Cc1scnc1C,16.81,-1.474
COCCN(Cc1ccccc1)C(=O)c1cnn(C)c1C,8.062,-4.924
NC(=O)Cc1ccc(NC(=O)C2CCOCC2)cc1,-13.93,-10.08
CCOC(=O)CNC(=O)c1cc2n(n1)CCCO2,-18.6,-14.71
CCOc1ccnc(N2CCN(C(=O)c3cnc[nH]3)CC2)n1,-27.02,9.845
CN(Cc1nnnn1C1CC1)CC1COc2ccccc2O1 (stereo not given),29.46,14.24
COc1cc(CNC(=O)c2cc(S(C)(=O)=O)ccc2C)ccn1,-19.28,-9.722
O=C(NC1CCCc2nc(N3CCCCC3)ncc21)C1CCCC1 (stereo not given),16.34,-4.719
NC(=O)NC(=O)C(c1ccccc1)N1CCN(Cc2ccc(Cl)s2)CC1 (stereo not given),32.72,-27.61
[H][C@@]12C[C@H](C(=O)NC3CCC3)[C@@]([H])(CN(S(=O)(=O)c3ccccc3)C1)O2,-34.36 & 0.6055,-17.19
CCCc1n[nH]c(C2CN(Cc3nnc(C4CC4)o3)CCO2)n1 (stereo not given),20.69,11.86
O=C(CCc1cscn1)N1CCCC(n2ccnc2)C1 (stereo not given),-26.97,1.671
Cc1nn(C)c(N(C)C)c1CNC1CCc2cc(F)ccc21.Cl (stereo not given),28.21,-10.37
Cc1ccc(C(=O)N2CCC(c3nccn3Cc3ccncc3)CC2)s1,4.141,-6.812 & -16.61
O=C(CCn1cncn1)NCC1CCS(=O)(=O)C1 (stereo not given),-1.899,2.224
COc1cccc(CNC(=O)CC2CSc3ncc(C)c(=O)n32)c1 (stereo not given),-6.389,-3.074
OC1(Cn2ccc3ccncc32)CCN(Cc2ccccn2)CC1,-0.5282,-2.545
Cc1cc2nc(CO[C@H]3CN(C4CCC4)C[C@H]3F)[nH]c2cc1C,32.91 & 23.03,15.5
CC1(C)CC(=O)c2cnc3nc(N4CCOCC4)nc(O)c3c2C1,-3.137 & 28.04,-2.442
O=C(c1ccccn1)N1CCCC(c2nccn2Cc2ccncc2)C1 (stereo not given),-19.29 & -0.412,-35.21
COCc1cccc(NC(C)C(=O)N(C)Cc2cccc(F)c2)c1 (stereo not given),19.79,-2.645
COc1cccc(N2CCC(N3C[C@@H](NC(C)=O)[C@H](C(C)C)C3)CC2)c1,17.89,18.38
[H][C@@]12COC[C@H](c3nc(C)no3)[C@]1([H])CN(C(=O)Cc1ccc(F)cc1)C2,28.55,5.761 & -2.563
Cc1ccc(-n2c(O)cc(C)c(C#N)c2=O)c(C)c1,12.04,14.76
CCCc1cc(CN(C)C2CSCCSC2)n[nH]1,5.394,-15.27
CCN1CC(C(=O)NCc2cccc(SC)c2)CC1=O (stereo not given),-25.5,-18.24 & -0.6347
COCCCOc1ccc(C(=O)N(Cc2cnn(C)c2)C(C)C)cn1,-8.52,8.343
COc1cc(C)c(CNC(C)c2csc(C)n2)cc1OC (stereo not given),2.609 & 13.17,15.06
Cc1c(C(=O)N2CCOCC2)nnn1-c1ccc2ncccc2c1,-14.57,8.969
[H][C@]12CC[C@]([H])(CN(Cc3ccccc3)C1)N(C(=O)N1CCN(C)CC1)C2,-3.369,-12.45
CC(C)c1noc(CCNC(=O)C2COc3ccccc3C2)n1 (stereo not given),25.73,-40.21
CCC(CC)C(=O)N1CCC2(C1)CN(c1ccccc1)C(=O)CN2C.O=C(O)C(F)(F)F (stereo not given),-12.87,-15.46
O=C(CC1COCCN1C(=O)c1cscn1)c1ccccc1 (stereo not given),2.277,-3.223 & -1.23
COCCNC(=O)CCc1c(C)nn(-c2nc(C)c(C)c(=O)[nH]2)c1C,5.144,-1.417